Drawing on publication doi:10.1101/2024.12.04.624804, this text covers binding for three substances.

Sequences of proteins named here, by UniProt entry; tags and fusion partners are left off. A change or cut given only in a name is not applied to a line headed by its entry. A line that says so, or that is headed by a name, gives the form on record, which may keep a tag or linker.
Flag-tagged E3 ubiquitin-protein ligase Itchy homolog (ITCH) (Q96J02, form named): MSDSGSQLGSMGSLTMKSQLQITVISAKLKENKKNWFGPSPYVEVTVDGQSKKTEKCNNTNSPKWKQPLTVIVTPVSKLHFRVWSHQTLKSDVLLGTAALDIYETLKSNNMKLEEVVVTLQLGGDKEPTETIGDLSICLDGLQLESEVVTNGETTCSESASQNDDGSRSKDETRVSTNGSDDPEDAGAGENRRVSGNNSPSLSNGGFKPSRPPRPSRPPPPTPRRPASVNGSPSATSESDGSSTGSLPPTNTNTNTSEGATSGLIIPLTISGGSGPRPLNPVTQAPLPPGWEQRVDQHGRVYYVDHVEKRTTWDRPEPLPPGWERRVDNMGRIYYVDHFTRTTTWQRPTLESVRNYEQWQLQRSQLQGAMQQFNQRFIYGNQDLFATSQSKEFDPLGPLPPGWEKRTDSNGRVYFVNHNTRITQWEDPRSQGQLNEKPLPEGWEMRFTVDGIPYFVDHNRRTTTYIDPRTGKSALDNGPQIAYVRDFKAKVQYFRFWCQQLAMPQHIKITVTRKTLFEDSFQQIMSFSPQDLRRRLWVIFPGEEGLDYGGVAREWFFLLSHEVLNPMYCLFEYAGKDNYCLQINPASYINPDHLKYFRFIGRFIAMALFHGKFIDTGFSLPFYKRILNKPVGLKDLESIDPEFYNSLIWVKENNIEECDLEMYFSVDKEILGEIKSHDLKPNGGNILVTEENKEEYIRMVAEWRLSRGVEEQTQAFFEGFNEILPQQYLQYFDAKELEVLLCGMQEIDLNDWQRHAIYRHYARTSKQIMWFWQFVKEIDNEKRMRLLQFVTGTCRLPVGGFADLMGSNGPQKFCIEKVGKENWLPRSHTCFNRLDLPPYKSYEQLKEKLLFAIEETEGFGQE

These are yes or no findings as the source states them, for the method shown. Binding seen in cells or lysates may run through a third protein. Some entries that bind do so weakly or less than the wild type.

Assay [1] addresses Flag-tagged SARS-CoV-2 envelope protein E (SARS-CoV-2) (UniProt P0DTC4). The assay is described as follows: co-IP.
Assay [2] has as its target Flag-tagged E3 ubiquitin-protein ligase Itchy homolog (ITCH) (human) (UniProt Q96J02). Briefly: co-IP.

On to “ubiquitinated s-tag-fused SARS-CoV-2 membrane protein M (from UniProt P0DTC5 1-222)”, for which, in assay [1], the binding result is on record as “binds”.
For the substance “s-tag-fused SARS-CoV-2 envelope protein E (from UniProt P0DTC4 1-75)”, the binding entry in assay [2] is “binds”.
Take “s-tag-fused SARS-CoV-2 membrane protein M (from UniProt P0DTC5 1-222)”: the binding result in assay [2] and in assay [1] was “binds” in each case.
